This is one part of the list. Further columns of the screen follow, without active or inactive calls. Compounds called inactive in the main read-out are mostly missing here. Words in brackets tell the shape of the fitted curve; partial curves, single points and poor fits give uncertain potencies.

The experiment in a line: qHTS Assay to Find Inhibitors of Chronic Active B-Cell Receptor Signaling. The following applies: ABC-DLBCL IkBa-CBG/CBR reporter, luminescence ratio (green luciferase fused to IkBa over red control in TMD8 lymphoma cells), 4 h. In a few lines: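 Concentration-response series (up to 46 uM) were applied to TMD8 dual-reporter cells for 4 h at 37C with doxycycline. Green/red ratio, after filter-overlap correction, defined %Activity; red signal alone was normalised to basal cells and zero luminescence.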
For orientation: In qHTS, concentration-response curves come from the screen itself.

Setting [1] is: measured here: CBR red luminescence, cell number.
Setting [2] is: measured here: IkBa-CBG green luminescence.

One may read the AC50 as the concentration at which the activity in the assay is half-maximal. Consider `CCCOc1ccc(C2C(=O)N(C3CCC(C)CC3)CC(=O)N2Cc2cccc(OC)c2)cc1OC` (stereo unspecified), for which, under setting [1], the AC50 was 5.62 µM [rising, single point].
Still for that read-out and setting: as for `COc1ccc(N(CC(=O)N2CCN(c3ccccc3)CC2)S(=O)(=O)c2ccc(C)cc2)cc1`, the figure is 35.5 µM [falling, single point]; as for `CCOC(=O)c1[nH]c2ccccc2c1NC(=S)Nc1cccc(C)c1`, 29.1 µM [falling, single point].
In the case of `C=C(C)CNC(=S)N/N=C/c1ccco1`, the AC50 under setting [2] is 28.2 µM [falling, single point].
As for `COc1ccc(CNc2ccc3c(c2)ncn3-c2ccccc2OC)cc1`, the AC50 under setting [1] is 7.08 µM [falling, partial curve, poor fit].
For `CCCOC(=O)c1ccc(NC(=O)c2cc(=O)[nH]c3ccccc23)cc1`, the AC50 under setting [1] is 2.82 µM [rising, partial curve, poor fit].
As to `CCOc1ccc(S(=O)(=O)NCC2CCCO2)c2ccccc12` (stereo unspecified), the AC50 under setting [1] was 14.1 µM [rising, single point].
Still for that read-out and setting: as for `O=C(N/N=C/C=C/c1ccccc1)c1cccs1`, the figure is 1.41 µM [falling, full curve].
With `NC(=O)c1ccnc2c(O)cccc12`, the AC50 under setting [1] was 32.6 µM [rising, single point].
Still for that read-out and setting: as for `CCN(CC)S(=O)(=O)c1ccc(Cl)c(NC(=O)COC(=O)c2cccn2C)c1`, the figure is 14.1 µM [falling, single point]; as for `COc1cc(NS(=O)(=O)c2ccc(NC(=S)NC(=O)/C=C/c3ccc(F)cc3)cc2)ncn1`, 0.631 µM [falling, full curve, poor fit].
Consider `CCC/C(=N/NC(=O)c1csc(C)c1C)c1ccc(Cl)s1`, for which the AC50 under setting [1] is 0.326 µM [falling, full curve, poor fit].
For the compound `Nc1nnc(-c2cc3ccccc3oc2=O)s1`, under setting [1], the AC50 was 9.2 µM [falling, partial curve].
Still for that read-out and setting: as for `COc1cc2c(cc1OC)C(C(=O)Nc1cc(C)c(OC)c(C)c1)CC(=O)N2` (stereo unspecified), the figure is 22.4 µM [rising, single point]; as for `CCOC(=O)c1c(C)oc2ccc(OCC(=O)C(C)(C)C)cc12`, 1.3 µM [falling, full curve]; as for `C[C@@H]1CN([C@H](C)CO)C(=O)Cc2cc(NC(=O)Cn3cnnn3)ccc2O[C@@H]1CN(C)Cc1ccc(Cl)c(Cl)c1`, 25.9 µM [falling, single point].
On the same count and under the same terms, in the case of `COc1ccccc1OCC(=O)NCc1n[nH]c(=O)c2ccccc12` it was 20.6 µM [falling, single point]; in that of `O=c1/c(=C\c2ccc(O)cc2)sc2nc(-c3ccccc3)c(-c3ccccc3)n12`, 35.5 µM [falling, single point]; in that of `O=C(C1CCCCC1)N1CCc2[nH]c3ccc(F)cc3c2C1`, 35.5 µM [rising, partial curve, poor fit].
Turning to `CN(c1ccc(C(=O)Nc2ccc(F)cc2F)cc1)S(=O)(=O)c1ccccc1`, under setting [1], the AC50 is 8.91 µM [falling, partial curve].
Regarding `CC1(NC(=O)N2CCCCC2)CCS(=O)(=O)C1` (stereo unspecified), the half-maximal activity concentration (AC50) under setting [1] was 1.58 µM [rising, full curve, poor fit].
With `Cc1cccc(-n2c(CCCN3C(=O)c4ccccc4C3=O)nc3ccccc3c2=O)n1`, under setting [1], the AC50 was 14.6 µM [rising, single point].
Same read-out and setting: as for `Cc1oc(-c2cccs2)nc1CN1CCC(CO)(CCOc2ccccc2)CC1`, the figure is 20 µM [rising, single point].
Regarding `C=CCN(C(=O)Cn1nc(C)n2c(cc3cc(C)ccc32)c1=O)c1ccccc1`, the AC50 under setting [2] is 12.6 µM [rising, partial curve, poor fit].
Consider `CCOc1ccc(Br)cc1S(=O)(=O)Nc1cccc(S(=O)(=O)N(C)c2ccccc2)c1`, for which the AC50 under setting [1] was 18.4 µM [falling, single point].
The same measure, in the same setting: in the case of `O=C(NC1CCCCCC1)C(=S)NC1CCCCC1` it was 11.2 µM [rising, partial curve, poor fit]; in that of `CC1CCc2c(sc(NC(=O)CSc3ncn[nH]3)c2C#N)C1` (stereo unspecified), 12.6 µM [falling, partial curve].
On the same count and under the same terms, as for `COc1cc(C2N3CC4(C)CN2CC(C)(C3)C4)ccc1O` (stereo unspecified), the figure is 1.03 µM [falling, full curve, poor fit]; as for `O=C(CNC(=O)c1ccc2ccccc2c1)NC1CCCCC1`, 23.1 µM [falling, single point]; as for `COc1cccc(-c2nnc(SCc3cccnc3)o2)c1`, 15.8 µM [falling, partial curve, poor fit].
The same measure, in the same setting: as for `CCC(CC)c1nnc(NC(=O)[C@@H](NC(=O)c2cccc(C)c2)C(C)C)s1`, the figure is 0.146 µM [rising, full curve, poor fit]; as for `Cc1cc2nc[nH]c2cc1[N+](=O)[O-]`, 35.5 µM [falling, partial curve, poor fit].
For the compound `COc1ccc(-c2cc(-c3ccco3)[nH]c(=O)c2C#N)cc1OC`, under setting [2], the AC50 was 25.1 µM [rising, partial curve, poor fit].
Take `CCC(=O)Nc1cc2nn(-c3ccc(OC)cc3)nc2cc1C`: the AC50 under setting [1] is 8.91 µM [rising, partial curve].
For `Cc1noc(C)c1CSc1nc2sc(C)c(C)c2c(=O)n1-c1ccccc1`, under setting [1], the AC50 is 0.517 µM [rising, full curve, poor fit].
For `COc1ccccc1/C=C/C(=O)NCCc1ccccn1`, under setting [1], the AC50 is 1 µM [falling, full curve].
The same measure, in the same setting: as for `CC(C)c1ccc(C2=NN(c3ccccc3)C(=O)CC2)cc1`, the figure is 9.2 µM [rising, partial curve]; as for `Cc1ccc(-c2cc(C(=O)N/N=C\c3cnn(C)c3C)c3ccccc3n2)cc1C`, 0.146 µM [rising, full curve, poor fit].
For `CCOC(=O)N1CCN(C(=O)CS(=O)(=O)c2cn(Cc3cccc(F)c3)c3ccccc23)CC1`, the AC50 by setting is: under setting [1], 16.4 µM [falling, single point]; under setting [2], 25.9 µM [rising, partial curve, poor fit].
Regarding `CC1CC2(CCCCC2)Nc2c1ccc1ccccc21` (stereo unspecified), the AC50 under setting [1] is 16.4 µM [rising, partial curve].
Same read-out and setting: in the case of `Cc1cccc(OCCCC(=O)NCC(=O)Nc2cccc(C)c2C)c1` it was 7.08 µM [falling, partial curve, poor fit].
Still for that read-out and setting: in the case of `COc1ccc(NC(=O)CSc2nc3sc(C)cc3c(=O)n2C)c(OC)c1` it was 3.98 µM [falling, single point].
Turning to `O=C(Cc1cccc2ccccc12)N/N=C/c1ccc(Sc2cccc3cccnc23)o1`, under setting [2], the AC50 is 20.6 µM [falling, partial curve, poor fit].
`Cc1cccc2cc(CNCc3ccccc3)c(Cl)nc12`: under setting [1], the AC50 is 20 µM [rising, partial curve, poor fit].
As for `O=C(CCc1nnc(CCCc2ccccc2)o1)NCCN1CCOC1=O`, the AC50 under setting [1] was 17.8 µM [rising, partial curve, poor fit].
Same read-out and setting: in the case of `Cc1ccc(NC(=O)C2C3/C=C\CCCCC32)cc1` (stereo unspecified) it was 2.06 µM [rising, partial curve].
The same measure, in the same setting: as for `c1ccc(C2=Nn3c(nnc3-c3ccncc3)SC2)cc1`, the figure is 0.631 µM [falling, partial curve, poor fit]; as for `CCOC(=O)c1nn(-c2ccccc2)c(=O)c2c(N)sc(C)c12`, 23.1 µM [rising, partial curve].
On the same count and under the same terms, in the case of `Cc1ccccc1NC(=O)c1cc(=O)c2ccccc2o1` it was 3.98 µM [falling, partial curve, poor fit]; in that of `Cc1cccc(-n2ncc3c(NC(C)C)ncnc32)c1`, 16.4 µM [falling, partial curve].
As to `COc1ccc(CNC(=S)Nc2ccccc2)cc1Cl`, the AC50 under setting [1] was 14.1 µM [rising, partial curve, poor fit].
Regarding `Nc1c2ccccc2nc2ccccc12`, under setting [2], the AC50 was 7.94 µM [rising, partial curve, poor fit].
`Cc1ccc(NC(=O)c2nc[nH]c2C(=O)N[C@H](C)c2ccccc2)cc1`: the AC50 under setting [1] is 20.6 µM [rising, partial curve, poor fit].
Regarding `COCCn1c(=NC(=O)C2COc3ccccc3O2)sc2cc(S(N)(=O)=O)ccc21` (stereo unspecified), the AC50 under setting [1] was 4.11 µM [rising, full curve, poor fit].
Still for that read-out and setting: in the case of `CC(=O)c1cccc(N=Cc2c(O)c3ccccc3oc2=O)c1` it was 6.31 µM [falling, full curve].
In the case of `Cc1ccc(C)c(NS(=O)(=O)c2ccc(OCC(=O)NCc3ccco3)cc2)c1`, the AC50 under setting [1] was 16.4 µM [falling, single point].
Turning to `CCCCNC(=S)N(C)/N=C/c1ccc(F)cc1`, under setting [1], the AC50 was 11.6 µM [rising, partial curve].
Consider `Cc1cc(=O)oc2c(C(=O)/C=C\c3cccs3)c(O)ccc12`, for which, under setting [1], the AC50 is 7.31 µM [falling, partial curve].
With `O=C(O)c1ccc2c(c1)C(=O)N([C@H](Cc1ccccc1)C(=O)O)C2=O`, the AC50 under setting [1] was 9.2 µM [falling, partial curve, poor fit].
As for `CCc1cccc(CC)c1NC(=O)C1SC(=Nc2ccccc2C)C(c2nc3ccccc3s2)=C1N` (stereo unspecified), the AC50 under setting [1] was 29.1 µM [falling, single point].
The same measure, in the same setting: in the case of `O=C1Cc2ccccc2C(=O)N1Cc1ccccc1` it was 2.31 µM [falling, partial curve, poor fit].
Still for that read-out and setting: in the case of `O=C(C1COc2ccccc2O1)N1CCN(c2ccccc2F)CC1` (stereo unspecified) it was 0.1 µM [rising, full curve, poor fit].
For the compound `CCCCNC(=S)N/N=C/c1sccc1C`, the AC50 under setting [1] was 11.2 µM [rising, partial curve, poor fit].
Regarding `O=C(CSc1nnc(-c2ccc(C(F)(F)F)cn2)o1)Nc1ccccc1Cl`, the half-maximal activity concentration (AC50) under setting [1] is 12.6 µM [falling, partial curve].
Same read-out and setting: as for `CCOC(=O)/C=C/C(=O)OCC(=O)Nc1c(Cl)cccc1Cl`, the figure is 11.2 µM [falling, single point].

The values above are taken from PubChem BioAssay AID493014 (National Center for Advancing Translational Sciences (NCATS), 2011).
